# According to US11104663B2 (priority 2017, dated 2021):
smiles,measurement,value
"O=C(O)c1cn(C2CC2)c2cc(N3CCNCC3)c(F)cc2c1=O [Ex. 2 ciprofloxacin, 1-cyclopropyl-6-fluoro-4-oxo-7-(piperazin-1-yl)-1,4-dihydroquinoline-3-carboxylic acid]",rate of dissolution in water compared with Form B and raw ciprofloxacin hydrochloride,significantly slower rate of dissolution
